PubChem BioAssay AID1117269, University of Michigan – 2014
In all, the deposit lists 714 reagents; shown is a part drawn at random. Of all reagents, 49 (6.9%) were called active. 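Active means a hit in at least one line; per-line hit columns show which; some siRNA pools appear more than once.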 Not stated in the record: the amount of reagent.

Assay: 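Kinases whose silencing alters a TGF-beta responsive luciferase reporter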 (primary screen)
Cells: human A549 lung cancer and 1833 breast cancer (MDA-MB-231-derived) cell lines carrying a stable BTR luciferase reporter
Knock-down reagent: siRNA pool against human genes
Duration: 72 h after transfection, then 1 h TGF-beta before the read
Conditions: TGF-beta 10 ng/mL added one hour before luciferin and read-out
Read-out: 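Live-cell BTR luciferase signal at 72 h after transfection and 1 h of TGF-beta at 10 ng/mL, fold versus scrambled siRNA, triplicate mean for each line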
Scale: fold over scrambled siRNA, A549 and fold over scrambled siRNA, 1833: higher = more reporter light, weaker TGF-beta receptor signalling
Call rule: 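Hit in either line counts as active; per-line hits lie above an upper limit from quartiles of averaged log fold values, in plate and screen-wide analyses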
Calls: active = hit in at least one line; inactive = hit in neither line

CKS1B (CDC28 protein kinase regulatory subunit 1B)
- fold over scrambled siRNA, A549: 3.6
- fold over scrambled siRNA, 1833: 3.93
- hit in A549: not a hit in A549
- hit in 1833: not a hit in 1833
- outcome: inactive

GCK (glucokinase)
- fold over scrambled siRNA, A549: 1.5
- fold over scrambled siRNA, 1833: 1.13
- hit in A549: not a hit in A549
- hit in 1833: not a hit in 1833
- outcome: inactive

WNK3 (WNK lysine deficient protein kinase 3)
- fold over scrambled siRNA, A549: 1.51
- fold over scrambled siRNA, 1833: 4.27
- hit in A549: not a hit in A549
- hit in 1833: not a hit in 1833
- outcome: inactive

MTOR (mechanistic target of rapamycin kinase)
- fold over scrambled siRNA, A549: 0.849
- fold over scrambled siRNA, 1833: 1.2
- hit in A549: not a hit in A549
- hit in 1833: not a hit in 1833
- outcome: inactive

GUK1 (guanylate kinase 1)
- fold over scrambled siRNA, A549: 1.57
- fold over scrambled siRNA, 1833: 3.05
- hit in A549: not a hit in A549
- hit in 1833: not a hit in 1833
- outcome: inactive

TAF1 (TATA-box binding protein associated factor 1)
- fold over scrambled siRNA, A549: 1.05
- fold over scrambled siRNA, 1833: 6.24
- hit in A549: not a hit in A549
- hit in 1833: not a hit in 1833
- outcome: inactive

CDK16 (cyclin dependent kinase 16)
- fold over scrambled siRNA, A549: 1.37
- fold over scrambled siRNA, 1833: 3.26
- hit in A549: not a hit in A549
- hit in 1833: not a hit in 1833
- outcome: inactive

MAP3K9 (mitogen-activated protein kinase kinase kinase 9)
- fold over scrambled siRNA, A549: 1.73
- fold over scrambled siRNA, 1833: 4.07
- hit in A549: not a hit in A549
- hit in 1833: not a hit in 1833
- outcome: inactive

PI4KA (phosphatidylinositol 4-kinase alpha)
- fold over scrambled siRNA, A549: 1.81
- fold over scrambled siRNA, 1833: 6.23
- hit in A549: not a hit in A549
- hit in 1833: not a hit in 1833
- outcome: inactive

PDK4 (pyruvate dehydrogenase kinase 4)
- fold over scrambled siRNA, A549: 5
- fold over scrambled siRNA, 1833: 7.78
- hit in A549: not a hit in A549
- hit in 1833: not a hit in 1833
- outcome: inactive

SRPK1 (SRSF protein kinase 1)
- fold over scrambled siRNA, A549: 2.01
- fold over scrambled siRNA, 1833: 11
- hit in A549: not a hit in A549
- hit in 1833: hit in 1833

MUSK (muscle associated receptor tyrosine kinase)
- fold over scrambled siRNA, A549: 0.883
- fold over scrambled siRNA, 1833: 2.53
- hit in A549: not a hit in A549
- hit in 1833: not a hit in 1833
- outcome: inactive

FYN (FYN proto-oncogene, Src family tyrosine kinase)
- fold over scrambled siRNA, A549: 2.17
- fold over scrambled siRNA, 1833: 8.04
- hit in A549: not a hit in A549
- hit in 1833: not a hit in 1833
- outcome: inactive

PRKDC (protein kinase, DNA-activated, catalytic subunit)
- fold over scrambled siRNA, A549: 3.67
- fold over scrambled siRNA, 1833: 3.76
- hit in A549: not a hit in A549
- hit in 1833: not a hit in 1833
- outcome: inactive

Sorted by “fold over scrambled siRNA, A549” (highest first): some entries from above
CKS1B (CDC28 protein kinase regulatory subunit 1B)
- fold over scrambled siRNA, A549: 3.6
- fold over scrambled siRNA, 1833: 3.93
- hit in A549: not a hit in A549
- hit in 1833: not a hit in 1833
- outcome: inactive

GCK (glucokinase)
- fold over scrambled siRNA, A549: 1.5
- fold over scrambled siRNA, 1833: 1.13
- hit in A549: not a hit in A549
- hit in 1833: not a hit in 1833
- outcome: inactive
